Two substances from patent publication US6664372B1 (The Scripps Research Institute, priority 1996, dated 2003) can be followed below.

A short description of this series: general procedure: solution-phase peptide synthesis; MeO-PEG soluble polymer support (polyethylene glycol monomethyl ether); pentafluorophenyl carbamates of Boc-alkylhydrazines, DMAP.

“(O-Benzyl)Tyr^a-Gly^a-Gly^a-Phe^a-Leu^a-Boc” displayed a crude yield (whole synthesis, from 13, scale 38.0 μmol, trifluoroacetate) of 62.4%. Tyr^a-Gly^a-Gly^a-Phe^a-Leu^a-Boc yielded a step yield (late stage modification step, from 15, trifluoroacetate) of 90.7%. Moreover, the isolated yield (whole synthesis, overall from 13, scale of the general procedure 38.0 μmol, trifluoroacetate) was determined as 56.7%.
